According to the supplement of paper PMC3334620:
The full ranking holds about 33,000 sequences; the median of “E-score (-0.5 to 0.5)” is about -0.016, and the highest 2% start at about 0.3. The list shows a part of the results.

molecular target: T1, Yer184c (UniProt P39961); assay: PBM E-score (8-mer binding enrichment) (E-score (-0.5 to 0.5)); higher = stronger / more preferred TF binding; conditions: protein concentration: 100 nM; construct: GST-full length
T1 sequence: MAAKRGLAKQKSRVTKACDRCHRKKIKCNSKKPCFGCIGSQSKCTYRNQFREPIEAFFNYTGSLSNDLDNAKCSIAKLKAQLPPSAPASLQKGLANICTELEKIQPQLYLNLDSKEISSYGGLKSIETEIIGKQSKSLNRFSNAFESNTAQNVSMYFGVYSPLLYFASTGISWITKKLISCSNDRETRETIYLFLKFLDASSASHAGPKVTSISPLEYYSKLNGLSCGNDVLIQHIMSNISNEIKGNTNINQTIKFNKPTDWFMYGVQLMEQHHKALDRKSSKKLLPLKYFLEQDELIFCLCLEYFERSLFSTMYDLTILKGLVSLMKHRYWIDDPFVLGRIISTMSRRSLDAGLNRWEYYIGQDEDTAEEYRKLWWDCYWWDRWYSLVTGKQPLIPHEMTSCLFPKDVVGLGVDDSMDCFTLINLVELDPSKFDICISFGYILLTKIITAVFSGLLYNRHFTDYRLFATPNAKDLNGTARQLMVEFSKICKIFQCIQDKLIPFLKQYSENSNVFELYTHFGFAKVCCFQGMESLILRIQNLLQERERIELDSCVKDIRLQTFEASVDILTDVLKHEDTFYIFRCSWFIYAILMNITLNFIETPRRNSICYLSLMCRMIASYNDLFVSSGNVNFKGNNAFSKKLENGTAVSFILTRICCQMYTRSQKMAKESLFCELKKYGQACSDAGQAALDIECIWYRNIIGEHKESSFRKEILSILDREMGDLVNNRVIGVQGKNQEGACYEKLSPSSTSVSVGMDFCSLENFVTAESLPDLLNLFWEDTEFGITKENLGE
Summary of the method: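 E-scores (a modified Wilcoxon-Mann-Whitney statistic) were assigned by the Universal PBM Analysis Suite to every ungapped eight-base word pooled with its reverse complement. The input came from universal all-10-mer Agilent arrays made double-stranded by primer extension and probed with GST-tagged yeast transcription factors at about 100-200 nM. Fluorescent anti-GST detected bound protein, and masliner normalised the scans.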

Row | Sequence | PBM E-score
1 | CGTCGTGA | -0.152
2 | AGGGGACT | -0.17
3 | GTGCGCAA | -0.0502
4 | GAGTTAGC | -0.0328
5 | ACCTTTGG | -0.372
6 | ATTTTTGG | -0.0313
7 | CACACCCA | -0.135
8 | ACACTAAC | 0.00821
9 | ACTAGTGC | 0.0751
10 | CGATAGAC | -0.0952
11 | GTCTCCAA | 0.0462
12 | CCGACGTA | -0.0133
13 | GTACTAAA | 0.162
14 | CCTCCTAC | -0.0884
15 | CCCCGGAC | 0.0445
16 | CACCCGGA | 0.237
17 | CTTACAGC | -0.0235
18 | CCACTCAG | -0.158
19 | CAACGGAG | 0.0267
20 | CTTACTAC | -0.0588
21 | ATCGCCCC | -0.235
22 | CAGGACTG | -0.223
23 | GGAGGGAC | -0.0771
24 | CGCGTACA | -0.0798
25 | AGTGCGTC | -0.162

Row | Sequence | PBM E-score
26 | GACCATAA | 0.0623
27 | TAAAGGAA | -0.00126
28 | CGTAGACC | -0.171
29 | GCTCACGA | -0.15
30 | GATTGTCC | 0.156
31 | CCGCCGGA | 0.316
32 | AACCAAGC | -0.0189
33 | ATGCGTGA | 0.0231
34 | ATGCTGTC | -0.109
35 | AACCACGC | -0.0516
36 | ACAGTTAC | 0.027
37 | CTATGGTA | -0.0782
38 | CGGTCGGA | 0.193
39 | ACAATATC | 0.0651
40 | CCTGCACG | -0.153
41 | AAGGTAGC | -0.154
42 | ATGCTACA | -0.0714
43 | CTATTGAC | -0.0106
44 | CGTAAGAA | 0.111
45 | AGAGCTGC | -0.203
46 | AGTATAGC | -0.0324
47 | GATAATCC | 0.0339
48 | AGCGTTCG | -0.0742
49 | ATAGGGCG | -0.15
50 | ATAAGCCA | -0.0435

Part of the list above, reformatted.

| Row | Sequence | PBM E-score |
| --- | --- | --- |
| 40 | CCTGCACG | -0.153 |
| 41 | AAGGTAGC | -0.154 |
| 42 | ATGCTACA | -0.0714 |

The results go on:

Row | Sequence | PBM E-score
51 | CGCCCACA | -0.0633
52 | ACAGGTGG | -0.186
53 | AAACTCGA | 0.0301
54 | CTGCTCGA | -0.179
55 | ACCATATG | -0.282
56 | TAGCCCCA | -0.287
57 | CAGAAGAC | -0.0508
58 | CGCGTGCC | -0.102
59 | AGGTCCAG | -0.00849
60 | CCCCCTCC | -0.297
61 | CTAAGGAA | 0.152
62 | GTGAGGCA | -0.178
63 | ACACATGG | -0.084
64 | AAGTCCCT | -0.258
65 | TCCCCTCA | -0.2
66 | GGAGAAGA | -0.186
67 | CTTTGCTA | -0.0566
68 | GCGTTTAC | -0.0519
69 | CGCCGTAA | 0.194
70 | CCGCATAG | 0.0243
71 | GCTTAAAC | 0.0277
72 | CTCGCCAA | -0.0568
73 | ACCATGTA | -0.0394
74 | ATTCCGTA | 0.322
75 | ATCACCGG | 0.112

Row | Sequence | PBM E-score
76 | ATTTGGTG | -0.0614
77 | AGGAGCAG | -0.262
78 | CATTACTC | 0.0786
79 | GTAATGAA | 0.0451
80 | AAACCATT | -0.107
81 | ATGTGCCC | -0.0806
82 | CCTGAGTC | -0.0246
83 | GAGAACGC | -0.153
84 | ACTTAGGG | 0.0512
85 | CGGTTTGC | 0.149
86 | AAAGATTG | -0.188
87 | CTGAATCC | 0.0323
88 | GGGCGGCA | -0.0593
89 | CCGAGCGG | 0.228
90 | AGGAATCG | 0.0578
91 | AGCCTCAG | -0.144
92 | GTCATTTA | -0.143
93 | CATGGTGC | -0.169
94 | AGGCGATC | -0.168
95 | AAGATCCC | 0.00396
96 | ACCGCGAT | 0.124
97 | CGTGGTGC | -0.0856
98 | ATTGGTGA | -0.0742
99 | GGATGAGA | -0.0959
100 | GAGTTCAA | 0.155

Row | Sequence | PBM E-score
101 | CCACATGC | -0.162
102 | ATTACACA | 0.0824
103 | CAGGAGCA | -0.0755
104 | GCGGCCGA | 0.242
105 | CATCGTCC | 0.0738
106 | AAGACTGC | -0.2
107 | TAAATAGA | 0.0603
108 | AGCGACTG | -0.0337
109 | ACACAGCA | 0.0107
110 | CACCGCGC | -0.119
111 | AAGTTTAG | 0.0157
112 | AGGGTTTG | -0.165
113 | ATCACACG | 0.0979
114 | ATTCTGAA | 0.147
115 | CGGTTTGA | 0.149
116 | AACAATAG | -0.178
117 | CTGATCAG | 0.142
118 | CGTATCAA | -0.00371
119 | GCACTTGA | -0.0825
120 | ATCACGAC | -0.0343
121 | AGATTCTC | 0.11
122 | ACACCTTA | -0.0394
123 | ATGCGCTC | -0.0499
124 | TGATTCCA | -0.127
125 | ATTGTCGA | 0.139

Row | Sequence | PBM E-score
126 | ACATAAGA | 0.0039
127 | AATGCAGG | -0.0832
128 | CACATGTC | -0.135
129 | AACAGACA | 0.166
130 | AACAGCAG | 0.0582
131 | AGATGCAA | -0.206
132 | CAATTCCG | 0.315
133 | GACAGACC | -0.0221
134 | AGAGTCCT | -0.205
135 | GATCCTGC | -0.0407
136 | CCCGAAGC | 0.0751
137 | TACTGCCA | -0.0195
138 | CACTTATG | 0.0163
139 | GACCCAGA | -0.0246
140 | ATTAAAAC | 0.286
141 | GCGCCAAC | -0.0536
142 | TCTTCTCA | 0.0598
143 | CGCGGGAG | -0.167
144 | ACCAGAGT | -0.251
145 | CAGGAGCC | -0.158
146 | AGTGCGCA | -0.0316
147 | ACTACGAT | 0.0304
148 | ATGCGCCG | 0.164
149 | GTGGCACA | -0.186
150 | AGGTTGGC | -0.3

Seven entries picked at random from the list so far:
Row | Sequence | PBM E-score
137 | TACTGCCA | -0.0195
132 | CAATTCCG | 0.315
144 | ACCAGAGT | -0.251
149 | GTGGCACA | -0.186
146 | AGTGCGCA | -0.0316
148 | ATGCGCCG | 0.164
134 | AGAGTCCT | -0.205

Remaining list, next part

Row | Sequence | PBM E-score
151 | AGTGTACC | -0.258
152 | CCGATGAA | 0.203
153 | TAGCCCGA | 0.0471
154 | CTGGTTCC | 0.047
155 | GCCGGCGC | 0.406
156 | CTTTTTTC | 0.114
157 | ACCTGCTA | -0.00094
158 | ACTTATCC | 0.178
159 | AGTTGAGG | -0.00602
160 | GCCTGGAC | -0.138
161 | AAGGTTTC | -0.0314
162 | ATTGAATC | -0.0312
163 | AGAGAAGG | -0.16
164 | ATTTCACG | 0.147
165 | AGACTAAG | -0.0179
166 | GAGCTTGA | -0.0376
167 | CGGAACCC | 0.279
168 | GTCCGCAA | 0.148
169 | ATGGCAGG | 0.043
170 | GGAGTCAC | -0.142
171 | GCCTTTCA | 0.00092
172 | AGACAAGG | -0.0717
